From patent publication US9040482B2, “Octapeptide compounds and therapeutic use thereof” (IPSEN PHARMA S.A.S., priority 2010, dated 2015)
Some of these results come from one statement about several compounds together.

By UniProt entry, the sequences of proteins in these tests, tags left out. Where a name states a change or a piece, a line headed by the entry shows the natural chain unless it says otherwise.
UniProt P30874: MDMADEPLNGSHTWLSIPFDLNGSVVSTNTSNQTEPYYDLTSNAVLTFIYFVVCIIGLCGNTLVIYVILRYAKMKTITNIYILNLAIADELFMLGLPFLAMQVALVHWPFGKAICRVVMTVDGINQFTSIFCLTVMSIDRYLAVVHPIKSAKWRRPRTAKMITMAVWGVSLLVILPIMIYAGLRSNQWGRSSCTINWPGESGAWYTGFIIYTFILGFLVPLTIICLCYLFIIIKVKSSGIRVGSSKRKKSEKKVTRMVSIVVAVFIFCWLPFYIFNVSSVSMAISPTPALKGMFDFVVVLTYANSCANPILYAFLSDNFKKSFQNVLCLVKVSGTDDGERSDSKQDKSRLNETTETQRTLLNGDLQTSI
UniProt P35346: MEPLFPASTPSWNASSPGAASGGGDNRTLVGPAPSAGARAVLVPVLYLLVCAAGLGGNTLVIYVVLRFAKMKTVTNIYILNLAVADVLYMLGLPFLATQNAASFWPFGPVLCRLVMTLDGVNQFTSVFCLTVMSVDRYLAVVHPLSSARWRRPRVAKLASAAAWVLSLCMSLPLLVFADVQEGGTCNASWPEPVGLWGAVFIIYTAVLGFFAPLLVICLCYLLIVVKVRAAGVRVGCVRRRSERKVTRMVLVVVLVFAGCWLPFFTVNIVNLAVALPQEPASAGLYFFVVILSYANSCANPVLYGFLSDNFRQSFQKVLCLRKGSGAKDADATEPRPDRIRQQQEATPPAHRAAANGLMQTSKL
UniProt P32745: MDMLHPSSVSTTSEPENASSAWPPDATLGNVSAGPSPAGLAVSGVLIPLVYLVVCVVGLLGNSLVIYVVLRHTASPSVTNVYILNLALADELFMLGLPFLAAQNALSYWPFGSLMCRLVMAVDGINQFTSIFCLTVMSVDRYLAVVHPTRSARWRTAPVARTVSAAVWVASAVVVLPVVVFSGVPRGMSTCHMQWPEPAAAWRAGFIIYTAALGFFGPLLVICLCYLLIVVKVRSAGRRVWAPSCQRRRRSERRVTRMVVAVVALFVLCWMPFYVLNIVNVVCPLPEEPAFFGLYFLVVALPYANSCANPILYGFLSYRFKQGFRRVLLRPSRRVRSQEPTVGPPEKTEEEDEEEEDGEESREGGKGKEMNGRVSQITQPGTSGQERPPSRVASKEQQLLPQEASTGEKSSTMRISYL

Experiments:
[1] = target: T1, somatostatin receptors sub-type 2 (Homo sapiens, UniProt P30874); assay: Competitive inhibition of [125I-Tyr11]SRIF-14 binding to membranes of transfected CHO-K1 cells, sub-type 2; settings: [125I-Tyr11]SRIF-14 displacement, bound in μM
T1 construct: expressed in transfected cells; host or cells: CHO-K1

[2] = target: T2, somatostatin receptors sub-type 5 (Homo sapiens, UniProt P35346); assay: Competitive inhibition of [125I-Tyr11]SRIF-14 binding to membranes of transfected CHO-K1 cells, sub-type 5; settings: [125I-Tyr11]SRIF-14 displacement
T2 construct: expressed in transfected cells; host or cells: CHO-K1

[3] = target: T3, somatostatin receptors sub-type 3 (Homo sapiens, UniProt P32745); assay: Competitive inhibition of [125I-Tyr11]SRIF-14 binding to membranes of transfected CHO-K1 cells, sub-type 3; settings: [125I-Tyr11]SRIF-14 displacement, bound in μM
T3 construct: expressed in transfected cells; host or cells: CHO-K1

## H-D-2-Nal^1-cyclo(Cys^2-Tyr^3-D-Trp^4-Orn^5-Val^6-Cys^7)-Thr^8-NH2 [Example 1]
[1]
  affinity for the somatostatin receptors sub-type 2: less than or equal to 5 μM
[2]; bound in nM
  affinity for the somatostatin receptors sub-type 5: less than or equal to 500 nM
[2]; bound in μM
  affinity for the somatostatin receptors sub-type 5: less than or equal to 5 μM
[3]
  affinity for the somatostatin receptors sub-type 3: less than or equal to 1 μM
